Structures are written as SMILES. Out of some 1,400 compounds screened, about 45 (3%) were called active.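 Rule for the calls: active = half-maximal dose of signal decrease from fit no higher than ten times the top valid tested dose; inconclusive = fit invalid, or curve flat with 30 to 70% inhibition; inactive = the rest.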 The list shows a part of the results. Results with a measured potency or affinity are listed apart.

Sequences of proteins named here, by UniProt entry; tags and fusion partners are left off. A change or cut given only in a name is not applied to a line headed by its entry.
UniProt O75164: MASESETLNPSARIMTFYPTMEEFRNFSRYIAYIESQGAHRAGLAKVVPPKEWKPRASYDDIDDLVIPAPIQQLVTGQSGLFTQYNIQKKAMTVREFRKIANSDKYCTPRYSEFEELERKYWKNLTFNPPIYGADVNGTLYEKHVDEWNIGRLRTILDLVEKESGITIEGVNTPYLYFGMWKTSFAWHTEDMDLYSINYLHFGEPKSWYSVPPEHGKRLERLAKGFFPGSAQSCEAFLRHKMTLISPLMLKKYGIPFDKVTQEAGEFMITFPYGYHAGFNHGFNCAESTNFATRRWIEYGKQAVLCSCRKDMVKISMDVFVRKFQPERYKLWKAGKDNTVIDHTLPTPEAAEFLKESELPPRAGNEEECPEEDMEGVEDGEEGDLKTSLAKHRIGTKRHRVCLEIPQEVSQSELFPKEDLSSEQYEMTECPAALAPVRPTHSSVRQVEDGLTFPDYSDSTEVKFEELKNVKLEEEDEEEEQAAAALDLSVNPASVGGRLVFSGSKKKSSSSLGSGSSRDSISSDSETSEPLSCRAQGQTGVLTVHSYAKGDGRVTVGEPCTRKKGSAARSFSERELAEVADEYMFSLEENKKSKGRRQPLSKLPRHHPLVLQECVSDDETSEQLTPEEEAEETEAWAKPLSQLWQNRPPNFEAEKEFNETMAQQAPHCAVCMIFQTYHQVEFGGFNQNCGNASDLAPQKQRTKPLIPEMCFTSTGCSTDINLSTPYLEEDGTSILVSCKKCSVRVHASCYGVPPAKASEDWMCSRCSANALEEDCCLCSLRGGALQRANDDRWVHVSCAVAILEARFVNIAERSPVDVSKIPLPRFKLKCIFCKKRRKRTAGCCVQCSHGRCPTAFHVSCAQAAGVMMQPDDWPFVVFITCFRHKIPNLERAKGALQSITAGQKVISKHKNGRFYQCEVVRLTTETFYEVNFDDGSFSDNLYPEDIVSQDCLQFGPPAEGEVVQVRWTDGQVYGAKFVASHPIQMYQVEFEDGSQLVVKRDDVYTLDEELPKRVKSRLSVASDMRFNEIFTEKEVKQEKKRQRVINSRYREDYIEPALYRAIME

This test concerns the target Lysine-specific demethylase 4A (Homo sapiens) (UniProt O75164). In words: inhibition of JMJD2A H3K9me3 demethylation – biochemical, DELFIA europium, cherry-picked samples, selectivity assay for GASC-1 inhibitor project, dose response (AID 488840).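 Note: europium signal reports the dimethyl H3K9 product detected by antibody so inhibitors lower it; 0% = median of neutral control wells and -100% = median of positive control wells.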 As to conditions: GST-JMJD2A(1-420) H3K9me3 demethylation; at 6 µM (top of the series) unless noted.
For `CNc1nc2c(c(=O)[nH]c(=O)n2C)n1CCCc1ccccc1`, the activity change, negative = inhibition was inactive: -6.12%.
Under `Cc1sc2c(c1C)C(=O)/C(=C\Nc1ccccn1)S(=O)(=O)N2C` stands inactive: 1.34%; under `COc1cccc(/C=N/Nc2nc3ccccc3[nH]2)c1O`, inactive: -1.33%.
For the compound `Cc1cc(C)c(NC(=O)CS(=O)CC(=O)Nc2ccc(F)cc2F)c(C)c1` (stereo not drawn), the activity change, negative = inhibition is inactive: 0.628%.
Under `Cc1noc(C)c1NC(=O)N(C)C[C@H]1Oc2ccc(NC(=O)Cn3cnnn3)cc2C(=O)N([C@H](C)CO)C[C@@H]1C` stands inactive: -8.39%; under `O=C(NCc1ccccc1)c1ccc2c(c1)OCCO2`, inactive: 3.98%; under `COc1cc(-c2nc(-c3cccc(C)c3)no2)cc(OC)c1OC`, inactive: 1.42%.
Next, `O=C(CSc1nc(-c2ccco2)cc(C(F)(F)F)n1)Nc1ccc(C(=O)N2CCCCC2)cc1`: inactive: 0.711%; `CCOC(=O)C1CCN(S(=O)(=O)c2cc3c4c(c2)C(C)C(=O)N4CCC3)CC1` (stereo not drawn): inactive: -4.56%; `Cc1sc2nc(CN3CCOCC3)nc(NS(=O)(=O)c3cc(Cl)ccc3Cl)c2c1C`: inactive: -1.37%.
Next, `COc1cc2[nH]c(=O)n(CCCCCC(=O)NCCCN3CCCC3=O)c(=O)c2cc1OC`: inactive: 1.66%; `CCCn1c(SCC(=O)NNC(=O)c2ccc(C)cc2)nnc1C(C)C`: inactive: -1.18%.
In the case of `CCOc1ccc(NCc2nnc(SCC(=O)Nc3cc(C)on3)n2-c2ccccc2OC)cc1`, the activity change, negative = inhibition is inactive: -1.16%.
Next, `Cc1ccc(S(=O)(=O)Nc2ccc3c(c2)C(=O)N([C@H](C)CO)C[C@H](C)[C@@H](CN(C)Cc2ccc(-c4ccccc4)cc2)O3)cc1`: inactive: 20.7%.
Under `Cc1cccc(C)c1NS(=O)(=O)c1cc2c3c(c1)CC(=O)N3CCC2` stands inactive: 0.393%; under `CCn1cnc2sc(C(=O)Nc3ccc4c(c3)OCO4)c(C)c2c1=O`, inactive: 3.95%; under `Cc1sc2ncnc(NCCCO)c2c1C`, inactive: -0.658%.
Under `CC(C)(C)NC(=O)CSc1nc2cccnc2n1C1CCCCC1` stands inactive: 0.463%; under `O=C(Nc1cccnc1)c1ccccc1Oc1ccccc1`, inactive: -1.69%.
On to `CSC1=NCCN1C(=O)c1cccc(C(F)(F)F)c1`, for which the activity change, negative = inhibition is inactive: 3.3%.
Under `CCOC(=O)CSc1nc2sc(C)c(C)c2c(=O)[nH]1` stands inactive: -5.03%.
Under `CC1=NN(c2nc(-c3ccc(C#N)cc3)cs2)C(=O)C1` stands inactive: 4.66%.
As for `Cc1cccc(N2CC(C(=O)Nc3nnc(SCC(=O)Nc4nccs4)s3)CC2=O)c1` (stereo not drawn), the activity change, negative = inhibition is inactive: 3.7%.
As for `CCOC(=O)c1oc2ccccc2c1COC(=O)C(C)NC(=O)c1ccco1` (stereo not drawn), the activity change, negative = inhibition was inactive: 0.994%.
Under `CCn1c(SCC(=O)N2CCc3ccccc32)nnc1-c1ccco1` stands inactive: 4.26%; under `COc1ccc(NC(=O)Nc2cccc3c2O[C@H](CN(C)C(=O)NC(C)C)[C@@H](C)CN([C@H](C)CO)C3=O)cc1`, inactive: 1.26%.
Next, `O=C(Cc1ccccc1Cl)NC1(O)C(=O)c2ccccc2C1=O`: inactive: 3%; `Cc1c(C2Nc3ccccc3NC3=C2C(=O)CC(C)(C)C3)cnn1C` (stereo not drawn): inactive: -13.3%; `CCOC(=O)C1=C(C)NC(=O)NC1c1ccc(Br)s1` (stereo not drawn): inactive: -9.77%.
Next, `Nn1cc(-c2ccccc2)nc1SCC(=O)N1CCN(S(=O)(=O)c2ccc3ccccc3c2)CC1`: inactive: 2.44%; `CC1(C)CC[C@]2(CO)CC[C@]3(C)C(=CCC4[C@@]5(C)CC[C@H](O)[C@@](C)(CO)C5CC[C@]43C)[C@@H]2C1` (stereo partly drawn): inactive: 0.503%; `COc1ccc(NC(=O)CCc2ccccc2)cc1NC(=O)c1ccco1`: inactive: -0.171%.
With `CCC(=O)Nc1ccccc1Nc1cc(C#N)c(C#N)cc1[N+](=O)[O-]`, the activity change, negative = inhibition is inactive: -1.89%.
Under `c1cc2c(cc1-c1csc(NNC3=NCCCCC3)n1)OCCO2` stands inactive: -7.3%.
Next, `Cc1ccc(S(=O)(=O)N2[C@@H](c3ccc(Br)cc3)C(C(=O)O)=C[C@H]2CC2CCCC2)cc1`: inactive: 1.88%.
Under `Cc1cc(C(=O)OCc2nnc(-c3ccccc3)o2)c(C)n1-c1ccccc1` stands inactive: 0.787%; under `O=C(Oc1cccc2cccnc12)c1cccc(N2C(=O)C3C4CCC(C4)C3C2=O)c1` (stereo not drawn), inactive: 5.55%; under `CCc1ccc(-c2nc(CN3CCC(C(=O)NCc4ccc(F)cc4)CC3)c(C)o2)cc1`, inactive: 1.84%.
In the case of `COc1ccc(CCN=C(NS(=O)(=O)c2ccc(Cl)cc2)c2ccccc2)cc1`, the activity change, negative = inhibition is inactive: 3.62%.
Next, `CCOC(=O)c1ccc(N2C(=O)C(C)=C(C)C2=O)cc1`: inactive: 0.899%; `Cc1cccc(-c2noc(CCC(=O)NC3CCCC3)n2)c1`: inactive: -1.01%.
Under `O=C(CSc1nc(-c2ccccc2)cc(=O)[nH]1)NCc1ccc2c(c1)OCO2` stands inactive: -1.25%.
Under `CCC(=O)Nc1ccc(NC(=O)CSc2nnnn2C(C)C)cc1` stands inactive: -1.9%; under `O=C(/C=C\c1ccc2c(c1)OCO2)NC1(C(=O)Nc2ccc3c(c2)OCO3)CCCCC1`, inactive: 3.58%.
Take `CC(C)CC(=O)Nc1ccccc1N1CCOCC1`: the activity change, negative = inhibition is inactive: -1.71%.
Under `CCOC(=O)N1CCN(c2ccc(F)cc2[N+](=O)[O-])CC1` stands inactive: -1.33%; under `Fc1cccc(F)c1/C=N/N1CCOCC1`, inactive: -1.31%; under `Oc1cc2c(cc1O)C(c1ccccc1)CNCC2` (stereo not drawn), inactive: -5.92%.
In the case of `O=C(NCC(c1ccco1)N1CCCCC1)c1ccc(OCc2ccccc2)cc1` (stereo not drawn), the activity change, negative = inhibition was inactive: -0.883%.
Under `c1ccc(-c2nc(-c3ccco3)cs2)nc1` stands inactive: 1.76%; under `OCc1ccc(OCCCOc2cccc3cccnc23)cc1`, inactive: -5.38%.
As to `CC1=C(C#N)C(Nc2ccc(C)cn2)(C(F)(F)F)C(=O)N1` (stereo not drawn), the activity change, negative = inhibition is inactive: 1.89%.
Next, `Nc1nn2c(-c3ccccc3)cc(=O)[nH]c2c1N=Nc1ccc(O)cc1`: inactive: 3.54%; `Cc1nnc(SCc2nc3ccccc3[nH]2)s1`: inactive: 3.75%; `COC(=O)C(Cc1ccccc1)NC(=O)COc1ccc(C(C)(C)C)cc1` (stereo not drawn): inactive: 4.08%.
Under `CC1Oc2ccccc2N(Cc2ccccc2Cl)C1=O` (stereo not drawn) stands inactive: -1.07%; under `CC1C(=O)N(Cc2ccc([N+](=O)[O-])cc2)c2ccccc2N1C(=O)C1CC1` (stereo not drawn), inactive: 1.19%.
With `COCCCNC(=O)CC1C[C@H](C(=O)N2CCOCC2)[C@@]2(C)c3[nH]c4ccccc4c3CCN2C1=O` (stereo partly drawn), the activity change, negative = inhibition is inactive: 7.23%.
Next, `COc1ccc(S(=O)(=O)N2CCC(C(=O)N3CCc4ccccc4C3)CC2)cc1`: inactive: -0.742%; `CC(=O)Nc1sc2c(c1CN1CCN(C)CC1)CCCC2`: inactive: -1.49%.
Next, `CCN(C[C@H]1N[C@@](Cc2ccccc2)(C(=O)OC)[C@H]2C(=O)N(C)C(=O)[C@@H]12)S(=O)(=O)c1ccccc1`: inactive: -3.04%; `CCN(Cc1cc2cc(OC)ccc2[nH]c1=O)C(=O)c1ccncc1`: inactive: 3.58%; `COCCn1c(SCC(=O)Nc2cc(C(C)(C)C)nn2-c2ccccc2)nc2ccccc2c1=O`: inactive: -2.83%.
Next, `O=C(C1CCN(S(=O)(=O)c2ccc3ccccc3c2)CC1)N1CCN(c2ncccn2)CC1`: inactive: 1.75%.
Take `N=c1n(CC(=O)c2cccc([N+](=O)[O-])c2)c2ccccc2n1Cc1ccccc1`: the activity change, negative = inhibition is inactive: 1.29%.
Next, `CCOC(=O)c1c(NC(=O)C2CCCO2)sc2c1CCC2` (stereo not drawn): inactive: -2.91%; `CC(CN1CCCC1)OC(=O)COc1ccccc1` (stereo not drawn): inactive: 0.818%; `COc1ccc2c(C(=O)NCCCCO)c(-c3ccc(S(C)(=O)=O)cc3)sc2c1`: inactive: -2.45%.
Under `O=C(Nc1nncs1)c1ccc2c(c1)OCO2` stands inactive: -2.22%.
Turning to `COc1ccc(C(=O)NC2CC3CCCC(C2)N3Cc2ccccc2)cc1` (stereo not drawn), the activity change, negative = inhibition was inactive: -2.69%.
With `CCCN(C(=O)Cc1ccc(S(=O)(=O)N2CCOCC2)s1)c1c(N)n(Cc2ccccc2)c(=O)[nH]c1=O`, the activity change, negative = inhibition was inactive: 7.73%.
For the compound `CCOc1ccc(NC(=O)CN(C)CC(=O)Nc2cc(Cl)ccc2C#N)cc1OCC`, the activity change, negative = inhibition is inactive: 3.1%.
Regarding `Cc1ccc(/C=N/NC(=O)c2ccc(C(=O)N/N=C/c3ccc(C)s3)o2)s1`, the activity change, negative = inhibition is inactive: 2.44%.
For `Cc1cc(-c2n[nH]c(=S)o2)c(C)n1-c1ccccc1`, the activity change, negative = inhibition is inactive: 0.78%.
Next, `Cn1c(/N=C/c2cc(Cl)ccc2O)nc2ccccc21`: inactive: 4.98%; `CCOC(=O)CNC(=O)CNC(=O)c1ccc(OC)cc1`: inactive: 2.12%; `O=C(NCCCn1ccnc1)c1cc2c(ccc3ccccc32)o1`: inactive: 4.32%.
Turning to `Cc1ccc(-n2c3nc(=O)[nH]c(=O)c-3cc3c(C)nn(-c4ccccc4)c32)c(C)c1`, the activity change, negative = inhibition is inactive: 1.15%.
On to `CC1=NN(c2ccc(C)cc2C)C(=O)C1C(c1ccccc1)C1C(=O)N(c2ccc(C)cc2C)N=C1C` (stereo not drawn), for which the activity change, negative = inhibition is inactive: -6.09%.
Under `N#Cc1cc(-c2ccccc2)nnc1Sc1ccccc1` stands inactive: -0.75%; under `C#CC[N+]1(CC#Cc2ccc(C#CC[N+]3(CC#C)CCOCC3)cc2)CCOCC1`, inactive: -1.43%; under `COC(=O)[C@]1(C)N[C@H](CN(C)S(=O)(=O)c2ccc(F)cc2)[C@@H]2C(=O)N(C)C(=O)[C@@H]21`, inactive: -2.49%.
Under `CCCCC(=O)NC(Nc1nc(C2CC2)cs1)(C(=O)OCC)C(F)(F)F` (stereo not drawn) stands inactive: -2.43%.
In the case of `O=[N+]([O-])c1ccccc1/C=C/C=N/n1c(-c2ccc(Cl)cc2)n[nH]c1=S`, the activity change, negative = inhibition is inactive: 4.39%.
Under `Cc1ccc(S(=O)(=O)N(C)C[C@@H]2Oc3ccc(NC(=O)Cn4cnnn4)cc3C(=O)N([C@@H](C)CO)C[C@H]2C)cc1` stands inactive: 8.93%; under `CCNc1oc(-c2cccc3ccccc23)nc1C#N`, inactive: 4.21%.
With `CCCCn1c(N)c(N(CC)C(=O)c2ccco2)c(=O)[nH]c1=O`, the activity change, negative = inhibition was inactive: 5.45%.
As for `CCCc1c(NC(=O)Nc2ccc(F)cc2)cnn1-c1ccccc1`, the activity change, negative = inhibition is inactive: 0.307%.

These data come from PubChem BioAssay AID488840 (Broad Institute, 2010).
